Experimental data from the supplement of paper PMC8728848.
This is one part of the list.

Assays:
Experiment in all cases: glycan array binding signal (z-score within array); higher = stronger binding
Details in all cases: glycan notation: IUPAC condensed, linker removed
Fuc(a1-2)Gal = molecular target: Fuc(a1-2)Gal
Method in brief: (§1)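 Glycan array binding is given as a within-array Z-score, which can be read as non-binding when negative. The arrays, 3228 of them, came from the Consortium for Functional Glycomics database and were retained only where the protein sequence was available. Z-scores were averaged across arrays of the same protein sequence at different concentrations or buffers and across linkers.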

Fuc(a1-2)Gal(b1-3)GalNAc = molecular target: Fuc(a1-2)Gal(b1-3)GalNAc
Method in brief: as §1

[1] = molecular target: Fuc(a1-2)Gal(b1-3)GalNAc(b1-3)Gal
Method in brief: as §1

[2] = molecular target: Fuc(a1-2)Gal(b1-3)GalNAc(b1-3)Gal(a1-4)Gal(b1-4)Glc
Method in brief: as §1

[3] = molecular target: Fuc(a1-2)Gal(b1-3)GalNAc(b1-4)[Neu5Ac(a2-3)]Gal(b1-4)Glc
Method in brief: as §1

Fuc(a1-2)Gal(b1-3)GlcNAc = molecular target: Fuc(a1-2)Gal(b1-3)GlcNAc
Method in brief: as §1

[4] = molecular target: Fuc(a1-2)Gal(b1-3)GlcNAc(b1-2)Man(a1-3)[Fuc(a1-2)Gal(b1-3)GlcNAc(b1-2)Man(a1-6)]Man(b1-4)GlcNAc(b1-4)GlcNAc
Method in brief: as §1

[5] = molecular target: Fuc(a1-2)Gal(b1-3)GlcNAc(b1-3)Gal(b1-4)Glc
Method in brief: as §1

[6] = molecular target: Fuc(a1-2)Gal(b1-3)GlcNAc(b1-3)[Gal(b1-4)[Fuc(a1-3)]GlcNAc(b1-6)]Gal(b1-4)Glc
Method in brief: as §1

[7] = molecular target: Fuc(a1-2)Gal(b1-3)[Fuc(a1-4)]GlcNAc
Method in brief: as §1

[8] = molecular target: Fuc(a1-2)Gal(b1-3)[Fuc(a1-4)]GlcNAc(b1-2)Man(a1-3)[Fuc(a1-2)Gal(b1-3)[Fuc(a1-4)]GlcNAc(b1-2)Man(a1-6)]Man(b1-4)GlcNAc(b1-4)GlcNAc
Method in brief: as §1

Fuc(a1-2)Gal(b1-4)Glc = molecular target: Fuc(a1-2)Gal(b1-4)Glc
Method in brief: as §1

Fuc(a1-2)Gal(b1-4)Glc6S = molecular target: Fuc(a1-2)Gal(b1-4)Glc6S
Method in brief: as §1

Fuc(a1-2)Gal(b1-4)GlcNAc = molecular target: Fuc(a1-2)Gal(b1-4)GlcNAc
Method in brief: as §1

[9] = molecular target: Fuc(a1-2)Gal(b1-4)GlcNAc(b1-2)Man(a1-3)[Fuc(a1-2)Gal(b1-4)GlcNAc(b1-2)Man(a1-6)]Man(b1-4)GlcNAc(b1-4)GlcNAc
Method in brief: as §1

[10] = molecular target: Fuc(a1-2)Gal(b1-4)GlcNAc(b1-3)Gal(b1-4)GlcNAc
Method in brief: as §1

[11] = molecular target: Fuc(a1-2)Gal(b1-4)GlcNAc(b1-3)Gal(b1-4)GlcNAc(b1-3)Gal(b1-4)GlcNAc
Method in brief: as §1

[12] = molecular target: Fuc(a1-2)Gal(b1-4)GlcNAc6S
Method in brief: as §1

[13] = molecular target: Fuc(a1-2)Gal(b1-4)[Fuc(a1-3)]GlcNAc
Method in brief: as §1

[14] = molecular target: Fuc(a1-2)Gal(b1-4)[Fuc(a1-3)]GlcNAc(b1-2)Man(a1-3)[Fuc(a1-2)Gal(b1-4)[Fuc(a1-3)]GlcNAc(b1-2)Man(a1-6)]Man(b1-4)GlcNAc(b1-4)GlcNAc
Method in brief: as §1

[15] = molecular target: Fuc(a1-2)Gal(b1-4)[Fuc(a1-3)]GlcNAc(b1-3)Gal(b1-4)[Fuc(a1-3)]GlcNAc
Method in brief: as §1

[16] = molecular target: Fuc(a1-2)Gal(b1-4)[Fuc(a1-3)]GlcNAc(b1-3)Gal(b1-4)[Fuc(a1-3)]GlcNAc(b1-3)Gal(b1-4)[Fuc(a1-3)]GlcNAc
Method in brief: as §1

Fuc(a1-2)Gal6S(b1-4)Glc = molecular target: Fuc(a1-2)Gal6S(b1-4)Glc
Method in brief: as §1

[17] = molecular target: Fuc(a1-2)Gal6S(b1-4)Glc6S
Method in brief: as §1

[18] = molecular target: Fuc(a1-2)Gal6S(b1-4)GlcNAc
Method in brief: as §1

Fuc(a1-2)[Gal(a1-3)]Gal = molecular target: Fuc(a1-2)[Gal(a1-3)]Gal
Method in brief: as §1

[19] = molecular target: Fuc(a1-2)[Gal(a1-3)]Gal(b1-3)GlcNAc
Method in brief: as §1

[20] = molecular target: Fuc(a1-2)[Gal(a1-3)]Gal(b1-3)GlcNAc(b1-2)Man(a1-3)[Fuc(a1-2)[Gal(a1-3)]Gal(b1-3)GlcNAc(b1-2)Man(a1-6)]Man(b1-4)GlcNAc(b1-4)GlcNAc
Method in brief: as §1

[21] = molecular target: Fuc(a1-2)[Gal(a1-3)]Gal(b1-4)Glc
Method in brief: as §1

[22] = molecular target: Fuc(a1-2)[Gal(a1-3)]Gal(b1-4)GlcNAc
Method in brief: as §1

B1: HHL-2 (Homo sapiens), P07307 (protein)
chain: MAKDFQDIQQLSSEENDHPFHQGEGPGTRRLNPRRGNPFLKGPPPAQPLAQRLCSMVCFSLLALSFNILLLVVICVTGSQSEGHRGAQLQAELRSLKEAFSNFSSSTLTEVQAISTHGGSVGDKITSLGAKLEKQQQDLKADHDALLFHLKHFPVDLRFVACQMELLHSNGSQRTCCPVNWVEHQGSCYWFSHSGKAWAEAEKYCQLENAHLVVINSWEEQKFIVQHTNPFNTWIGLTDSDGSWKWVDGTDYRHNYKNWAVTQPDNWHGHELGGSEDCVEVQPDGRWNDDFCLQVYRWVCEKRRNATGEVA
glycan array binding signal (z-score) (Fuc(a1-2)Gal): 1.01
glycan array binding signal (z-score) (Fuc(a1-2)Gal(b1-3)GalNAc): -0.547
glycan array binding signal (z-score) [1]: -0.188
glycan array binding signal (z-score) [2]: -0.718
glycan array binding signal (z-score) [3]: -0.656
glycan array binding signal (z-score) (Fuc(a1-2)Gal(b1-3)GlcNAc): -0.123
glycan array binding signal (z-score) [4]: -0.497
glycan array binding signal (z-score) [5]: 0.196
glycan array binding signal (z-score) [6]: -0.014
glycan array binding signal (z-score) [7]: -0.44
glycan array binding signal (z-score) [8]: -0.022
glycan array binding signal (z-score) (Fuc(a1-2)Gal(b1-4)Glc): -0.117
glycan array binding signal (z-score) (Fuc(a1-2)Gal(b1-4)Glc6S): 0.875
glycan array binding signal (z-score) (Fuc(a1-2)Gal(b1-4)GlcNAc): -0.637
glycan array binding signal (z-score) [9]: -0.518
glycan array binding signal (z-score) [10]: -0.485
glycan array binding signal (z-score) [11]: -0.382
glycan array binding signal (z-score) [12]: -0.345
glycan array binding signal (z-score) [13]: -0.464
glycan array binding signal (z-score) [14]: 2.08
glycan array binding signal (z-score) [15]: -0.38
glycan array binding signal (z-score) [16]: 0.145
glycan array binding signal (z-score) (Fuc(a1-2)Gal6S(b1-4)Glc): 0.709
glycan array binding signal (z-score) [17]: -0.824
glycan array binding signal (z-score) [18]: 0.464
glycan array binding signal (z-score) (Fuc(a1-2)[Gal(a1-3)]Gal): -0.174
glycan array binding signal (z-score) [19]: -0.587
glycan array binding signal (z-score) [20]: -0.019
glycan array binding signal (z-score) [21]: -0.529
glycan array binding signal (z-score) [22]: -0.743
